The whole screen tested about 340,000 compounds, of which about 170 (0.05%) were called active. Inconclusive means that the source gave no clear call. Such entries were picked first, then a sample of the others. Calls follow the shape of the dose curve; as a rule, active = well fitted inhibition curve with a large enough effect in the signal ratio, with a control signal flat (not every such curve was filed as active); inconclusive = small, poorly fitted or top-dose-only effect, or effect the other way, or a change in a side signal; inactive = flat fitted curve, though single readings scatter; the % refers to the signal ratio. Potencies beside an inconclusive call are fits to weak or partial responses and may not hold up.
assay: qHTS Assay to Find Inhibitors of Chronic Active B-Cell Receptor Signaling; conditions: ABC-DLBCL IkBa-CBG/CBR reporter, luminescence ratio (green luciferase fused to IkBa over red control in TMD8 lymphoma cells), 4 h; activity change, negative = inhibition: at 46.1 µM (top of the series);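 as to activity change, negative = inhibition: plate controls were basal doxycycline-induced cells for no effect and cells given 10 µM MG132 for full effect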
How it was run: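 Cell line TMD8 (human ABC DLBCL), stably expressing tet-inducible CBG68-IkBa fusion and CBR; IMDM/0.5% FBS; cpd up to 46 uM; dox induction, 4 h, 37C/5% CO2; dual luminescence; green/red ratio; MG132 control.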
Potency is read from the fitted curve at half-maximal effect.

Row | Compound | activity change, negative = inhibition | Potency
1 | CC1Cc2ccccc2N1C(=O)CSc1ccccc1 (stereo unspecified) | inconclusive: 2.17% | –
2 | C=CCOc1ccc(CNn2cn[nH]c2=S)cc1OCC | – | inconclusive: 15.8 µM [falling, partial curve, poor fit]
3 | c1ccc2c(N3CCCCC3)nc(N3CCCC3)nc2c1 | – | inconclusive: 29.1 µM [rising, partial curve, poor fit]
4 | Cc1ccc(C)c(S(=O)(=O)N2CCN(C(=O)CCCc3c[nH]c4ccccc34)CC2)c1 | inactive: 0.0998% | –
5 | O=C(O)C1C2CCC(O2)C1C(=O)NCc1ccc(Cl)cc1 (stereo unspecified) | inactive: -3.18% | –
6 | O=c1oc2cc(OCCO)ccc2c2c1CCCC2 | inconclusive: 6.58% | –
7 | COc1ccc(S(=O)(=O)NCC(=O)N(CC(=O)NCC2CCCO2)c2ccccc2C)cc1 (stereo unspecified) | inconclusive: -2.08% | –
8 | Cn1[nH]c(CSc2ccc(Cl)cc2)cc1=O | inconclusive: 4.19% | –
9 | Cc1cccc2cc(COC(=O)COc3ccccc3)c(=O)[nH]c12 | inconclusive: -0.677% | –
10 | CC(=O)c1ccc(NC(=O)CCNS(=O)(=O)c2ccccc2F)cc1 | inconclusive: 7.15% | –
11 | CC(=O)Oc1ccc(OC(C)=O)c(SCCCCCCl)c1 | inconclusive: 4.88% | –
12 | N#Cc1nc(Cc2cccc3ccccc23)oc1N1CCCCC1 | – | inconclusive: 20 µM [falling, partial curve, poor fit]
13 | COCCNC(=O)c1cc(-c2ccccc2OC)on1 | – | inconclusive: 31.6 µM [rising, single point]
14 | COC(=O)Cc1[nH]n(-c2nc3ccccc3s2)c(=O)c1C(C)=O | – | inconclusive: 20.6 µM [falling, single point]
15 | COc1ccc(C(CNC(=O)c2cccc(S(=O)(=O)Nc3ccc(C)cc3)c2)N2CCCCC2)cc1 (stereo unspecified) | – | inconclusive: 23.1 µM [falling, single point]
16 | O=C(COc1cccc2ccccc12)N/N=C/c1ccncc1 | – | inconclusive: 12.6 µM [falling, partial curve, poor fit]
17 | O=c1[nH]cccc1-c1nc2ccccc2[nH]1 | inconclusive: -14.4% | –
18 | O=C(CNC(=O)c1ccccc1Cl)c1ccccc1 | – | inconclusive: 20 µM [falling, single point]
19 | CN1Cc2ccccc2N(CC(=O)NCc2ccccc2)C1=O | inconclusive: -15.7% | –
20 | O=S1(=O)CCC(NC(=S)SCc2ccccc2Br)C1 (stereo unspecified) | – | inconclusive: 35.5 µM [falling, single point]
21 | O=C(NC1CCCCC1)c1c(O)nc2sccn2c1=O | – | inconclusive: 11.6 µM [falling, partial curve]
22 | CC1C/C(=C/c2ccncc2)C(=O)/C(=C/c2ccncc2)C1 (stereo unspecified) | – | inconclusive: 35.5 µM [rising, single point]
23 | CCOc1ccc(C(=O)c2cc3ccc(O)cc3oc2=O)cc1 | inconclusive: -22.3% | –
24 | O=C(CSc1ccc(-c2ccco2)nn1)Nc1ccccc1F | inactive: 1.52% | –
25 | NCCCC(=O)N1c2ccccc2Sc2ccc(Cl)cc21 | inconclusive: -16.7% | –
26 | CCOC(=O)C1=CN(Cc2cccc(F)c2)S(=O)(=O)N(C)C1c1ccc(F)c(Cl)c1 (stereo unspecified) | inconclusive: -6.55% | –

Row | Compound | activity change, negative = inhibition | Potency
27 | O=C(N/N=C/c1cccs1)c1ccc2c(c1)OCO2 | – | inconclusive: 18.4 µM [falling, partial curve]
28 | CC1CCN(c2ccc3c(c2)S(=O)(=O)c2cccc(C(=O)NC4CC4)c2C3=O)CC1 | inactive: -7.55% | –
29 | Cc1ccc(NC(=O)COC(=O)c2ccc3c(c2)NC(=O)C2CCCN32)cc1 (stereo unspecified) | inconclusive: -23.1% | –
30 | C[C@@]12C(=O)Nc3ccccc3C(=O)N1[C@H]1c3cc(Cl)ccc3OC[C@@H]1[C@@H]2c1ccccc1 | inactive: -0.192% | –
31 | CCN(c1ccccc1)S(=O)(=O)c1ccc(N)c(OC)c1 | inconclusive: -9.22% | –
32 | COc1cc(-c2noc(C)c2-c2ccc3[nH]ccc3c2)cc(OC)c1OC | – | inconclusive: 3.16 µM [falling, full curve, poor fit]
33 | O=C1CCNc2ccc(-c3ccccc3)cc21 | inconclusive: -1.18% | –
34 | COc1ccc2[nH]c(O)c(N=NC(=O)Cc3cccs3)c2c1 | inconclusive: 8.52% | –
35 | Cc1c(C(=O)Nc2cccc(Cl)c2)oc2ccc(S(=O)(=O)N3CCC4(CC3)OCCO4)cc12 | inactive: 6.23% | –
36 | Cc1cccc2cc(/C=N/NC(=O)[C@H]3C[C@@H]3c3ccccc3)c(Cl)nc12 | inconclusive: -8.93% | –
37 | O=C(NNC(=S)NCc1ccco1)c1ccc(Cl)s1 | inconclusive: -9.53% | –
38 | O=C(c1ccccc1)c1ccc2nc[nH]c2c1 | – | inconclusive: 29.1 µM [falling, single point]
39 | CCCN(CCC)Cc1cc(=O)oc2cc3c(cc12)CCC3 | inconclusive: -2.99% | –
40 | O=C(c1cccnc1)N1N=C(C2CCCCC2)CC1(O)C(F)(F)F (stereo unspecified) | – | inconclusive: 0.1 µM [falling, full curve, poor fit]
41 | CCOC(=O)c1c(C)oc2c1c(C(c1cccnc1)N1CCCCC1)c(O)c1ccccc12 (stereo unspecified) | inconclusive: 2.34% | –
42 | COc1ccc(/C=C/C(=O)NCC2COc3ccccc3O2)c(OC)c1 (stereo unspecified) | inactive: 1.08% | –
43 | O/N=C(\c1ccc(Cl)cc1)c1ncc(C(F)(F)F)cc1Cl | – | inconclusive: 1.64 µM [rising, full curve, poor fit]
44 | Cc1cccc(NC(=O)CN2CCN(C(=O)c3ccc(-c4nc5ccccc5s4)o3)CC2)c1C | inconclusive: 11.9% | –
45 | O=C(Cc1cccc2ccccc12)Nc1ccc(OC(F)F)c(Cl)c1 | inconclusive: 2.52% | –
46 | COc1cccc(-c2nc(N3CCCC3)c3ccccc3n2)c1O | inconclusive: 8.32% | –
47 | COCCNS(=O)(=O)c1ccc2c(c1)n(C)c(=O)n2C | – | inconclusive: 0.058 µM [falling, full curve, poor fit]
48 | Cc1ccc2nc3n(c(=O)c2c1)-c1cc(Cl)ccc1C(=O)NC3Cc1ccc(O)cc1 (stereo unspecified) | inconclusive: -1.13% | –
49 | Cc1ccc(C)c(-c2csc(N/N=C/c3ccco3)n2)c1 | inactive: -3.25% | –
50 | O=C1CCN(C(=O)/C=C/c2ccccc2)c2ccccc21 | inconclusive: 3.16% | –
51 | Cc1nc2ccccn2c1C(=O)NNC(=S)Nc1ccc(Cl)cc1 | inconclusive: 8.76% | –

Of the compounds above, two contain two or more sulfur atoms.
Row | Compound | activity change, negative = inhibition | Potency
20 | O=S1(=O)CCC(NC(=S)SCc2ccccc2Br)C1 (stereo unspecified) | – | inconclusive: 35.5 µM [falling, single point]
37 | O=C(NNC(=S)NCc1ccco1)c1ccc(Cl)s1 | inconclusive: -9.53% | –
